In all, about 300,000 compounds went through this assay and about 5,400 (1.8%) were called active. The shares of active, inactive and inconclusive entries below differ from those in the screen. The call rests on the fitted dose curve; tested in HEK293 cells. Potencies of inconclusive entries are doubtful fits and often do not repeat.
assay: qHTS for inhibitors of binding or entry into cells for Marburg Virus; details: Marburg virus pseudotyped entry inhibition, cell reporter; series mostly up to 37.8 µM
Potency means the concentration at half of the fitted maximal effect.

SMILES	Potency
O=C(Cc1ccccc1)Nc1ccc(NC(=O)c2cccnc2)cc1	inconclusive: 12.6 µM [activator, partial curve, poor fit]
CS(=O)(=O)c1ccc(-n2nnc3ccccc32)c([N+](=O)[O-])c1	inconclusive: 11.2 µM [inhibitor, single point]
CSc1ccccc1NC(=O)CN(C)C(=O)CCc1c[nH]c2ccccc12	inconclusive: 15.8 µM [activator, partial curve, poor fit]
C[C@H](NC(=O)COc1ccccc1)C(=O)OCC(=O)c1cc2ccccc2o1	inactive
COc1ccc(-n2ccnc2SCC(=O)NCc2ccc(F)cc2)c(OC)c1	inconclusive: 0.891 µM [inhibitor, full curve, poor fit]
COc1cccc2cc(C(C)=O)c(=O)oc12	inactive
CC(C)(C)c1ccc(S(=O)(=O)N2CCN(CC(O)CN3CCOCC3)CC2)cc1 (stereo not given)	inactive
CC(C(=O)Nc1cccc(S(=O)(=O)N2CCOCC2)c1)N1CCN(C/C=C/c2ccccc2)CC1 (stereo not given)	inconclusive: 22.4 µM [inhibitor, partial curve, poor fit]
Cc1cc(C)nc(/N=C(\N)N(Cc2ccccc2)Cc2ccccc2)n1	inconclusive: 17.8 µM [inhibitor, single point]
COc1ccc(Nc2nc(Nc3ccc(OC)cc3)nc(SC3=NCCS3)n2)cc1	inconclusive: 12.6 µM [inhibitor, partial curve]
COc1cccc(C(=O)Nc2ncc3c(n2)CC(c2ccc(OC)cc2OC)CC3=O)c1 (stereo not given)	inconclusive: 2.31 µM [inhibitor, full curve]
COc1ccc2[nH]c(O)c(N=O)c2c1	inactive
COC(=O)Nc1ccc(S(=O)(=O)N2CCC(Cc3ccccc3)CC2)cc1	inconclusive: 32.6 µM [inhibitor, single point]
COc1ccc(-c2cc(C(=O)N3CCOCC3)no2)cc1OC	inactive
O=C(Nc1ccc2c(c1)OCCO2)C1CCN(c2nnnn2-c2ccccc2)CC1	inactive
CCOc1ccc(CCNC(=O)C2CCN(Cc3nc(-c4ccc(OC)c(OC)c4)oc3C)CC2)cc1OCC	inconclusive: 31.6 µM [activator, single point]
COc1ccc(CCNC2=CC(=O)N(c3ccc(F)cc3)C2=O)cc1	inactive
CC(=O)NN1C(=O)/C(=C\c2ccccc2)SC1=S	inactive
CC(NC(=O)CNC(=S)N(Cc1cccs1)C1CCCC1)c1ccccc1 (stereo not given)	inconclusive: 12.6 µM [inhibitor, partial curve, poor fit]
Cc1ccc(N(CC(=O)Nc2cccc(Cl)c2C)S(=O)(=O)c2c(C)noc2C)cc1	inactive

Some of the entries so far, field by field:
COc1ccc(Nc2nc(Nc3ccc(OC)cc3)nc(SC3=NCCS3)n2)cc1
  Potency: inconclusive: 12.6 µM [inhibitor, partial curve]
COc1cccc(C(=O)Nc2ncc3c(n2)CC(c2ccc(OC)cc2OC)CC3=O)c1 (stereo not given)
  Potency: inconclusive: 2.31 µM [inhibitor, full curve]

From PubChem BioAssay AID540276 (National Center for Advancing Translational Sciences (NCATS), 2011)
